Data as given in ChEMBL document CHEMBL4622967, “Selective Class I HDAC Inhibitors Based on Aryl Ketone Zinc Binding Induce HIV-1 Protein for Clearance” (ACS Med Chem Lett, 2020).

Sequences of proteins named here, by UniProt entry; tags and fusion partners are left off. A change or cut given only in a name is not applied to a line headed by its entry.
UniProt P56524: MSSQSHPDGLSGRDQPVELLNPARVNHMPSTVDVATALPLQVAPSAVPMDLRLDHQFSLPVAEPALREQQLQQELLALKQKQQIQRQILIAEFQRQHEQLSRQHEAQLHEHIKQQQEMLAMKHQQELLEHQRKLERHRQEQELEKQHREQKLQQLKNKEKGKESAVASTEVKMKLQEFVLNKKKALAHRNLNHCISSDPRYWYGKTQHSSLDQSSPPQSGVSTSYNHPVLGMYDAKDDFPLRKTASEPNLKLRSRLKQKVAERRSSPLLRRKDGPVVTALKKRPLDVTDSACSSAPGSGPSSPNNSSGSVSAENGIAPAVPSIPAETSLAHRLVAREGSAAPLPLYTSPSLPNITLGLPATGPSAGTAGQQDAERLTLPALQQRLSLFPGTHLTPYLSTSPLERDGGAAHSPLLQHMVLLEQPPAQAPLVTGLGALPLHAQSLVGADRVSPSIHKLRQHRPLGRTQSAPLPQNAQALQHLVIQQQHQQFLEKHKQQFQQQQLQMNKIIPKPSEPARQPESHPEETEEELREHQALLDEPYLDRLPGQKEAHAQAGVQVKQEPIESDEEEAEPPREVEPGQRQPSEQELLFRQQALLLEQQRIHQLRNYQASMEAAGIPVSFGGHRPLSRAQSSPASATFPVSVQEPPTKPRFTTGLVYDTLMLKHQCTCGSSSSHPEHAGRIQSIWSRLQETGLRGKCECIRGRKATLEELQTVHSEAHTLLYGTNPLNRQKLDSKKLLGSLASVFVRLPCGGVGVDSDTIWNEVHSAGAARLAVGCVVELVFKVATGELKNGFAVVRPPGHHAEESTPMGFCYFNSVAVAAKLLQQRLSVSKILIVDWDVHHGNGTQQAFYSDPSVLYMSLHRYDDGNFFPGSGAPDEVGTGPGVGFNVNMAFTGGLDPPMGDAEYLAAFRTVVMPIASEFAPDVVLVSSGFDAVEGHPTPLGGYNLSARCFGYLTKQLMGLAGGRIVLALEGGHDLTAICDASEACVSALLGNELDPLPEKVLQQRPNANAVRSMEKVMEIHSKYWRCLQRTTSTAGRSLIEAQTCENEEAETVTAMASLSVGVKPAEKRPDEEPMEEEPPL
UniProt Q9UQL6: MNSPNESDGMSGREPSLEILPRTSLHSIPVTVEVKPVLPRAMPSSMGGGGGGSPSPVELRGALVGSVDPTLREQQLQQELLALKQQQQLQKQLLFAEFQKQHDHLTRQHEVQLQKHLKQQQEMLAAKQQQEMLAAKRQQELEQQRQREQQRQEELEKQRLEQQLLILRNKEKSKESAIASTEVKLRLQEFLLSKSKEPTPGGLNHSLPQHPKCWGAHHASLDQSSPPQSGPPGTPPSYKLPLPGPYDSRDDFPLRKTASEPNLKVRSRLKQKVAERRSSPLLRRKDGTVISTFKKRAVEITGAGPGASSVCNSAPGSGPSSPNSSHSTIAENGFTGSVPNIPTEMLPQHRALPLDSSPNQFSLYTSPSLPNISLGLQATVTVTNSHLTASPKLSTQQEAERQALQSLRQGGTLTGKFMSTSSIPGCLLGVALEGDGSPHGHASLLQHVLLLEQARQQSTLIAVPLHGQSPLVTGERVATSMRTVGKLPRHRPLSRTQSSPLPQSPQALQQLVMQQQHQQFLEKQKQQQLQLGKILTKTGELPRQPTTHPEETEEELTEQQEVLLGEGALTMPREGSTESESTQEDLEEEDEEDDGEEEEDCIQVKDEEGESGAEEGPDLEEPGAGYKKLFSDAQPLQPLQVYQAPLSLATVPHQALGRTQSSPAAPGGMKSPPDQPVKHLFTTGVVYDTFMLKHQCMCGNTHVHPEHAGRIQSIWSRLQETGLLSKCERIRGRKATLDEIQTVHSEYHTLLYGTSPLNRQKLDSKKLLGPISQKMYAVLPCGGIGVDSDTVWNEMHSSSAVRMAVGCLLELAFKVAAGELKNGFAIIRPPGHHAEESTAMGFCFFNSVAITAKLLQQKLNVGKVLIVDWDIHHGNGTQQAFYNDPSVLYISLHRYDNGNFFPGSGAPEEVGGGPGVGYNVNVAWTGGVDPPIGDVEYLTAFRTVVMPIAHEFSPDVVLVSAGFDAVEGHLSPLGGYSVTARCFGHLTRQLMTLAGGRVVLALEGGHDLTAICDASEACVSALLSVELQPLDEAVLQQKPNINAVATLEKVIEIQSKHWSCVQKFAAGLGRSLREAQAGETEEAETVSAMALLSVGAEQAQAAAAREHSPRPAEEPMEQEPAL

Key:
Histone deacetylase 4 = Histone deacetylase 4 (Homo sapiens, UniProt P56524)
Histone deacetylase 5 = Histone deacetylase 5 (Homo sapiens, UniProt Q9UQL6)
Histone deacetylase 7 = target: T1, Histone deacetylase 7 (Homo sapiens, UniProt Q8WUI4)
T1 sequence (Q8WUI4 whole entry): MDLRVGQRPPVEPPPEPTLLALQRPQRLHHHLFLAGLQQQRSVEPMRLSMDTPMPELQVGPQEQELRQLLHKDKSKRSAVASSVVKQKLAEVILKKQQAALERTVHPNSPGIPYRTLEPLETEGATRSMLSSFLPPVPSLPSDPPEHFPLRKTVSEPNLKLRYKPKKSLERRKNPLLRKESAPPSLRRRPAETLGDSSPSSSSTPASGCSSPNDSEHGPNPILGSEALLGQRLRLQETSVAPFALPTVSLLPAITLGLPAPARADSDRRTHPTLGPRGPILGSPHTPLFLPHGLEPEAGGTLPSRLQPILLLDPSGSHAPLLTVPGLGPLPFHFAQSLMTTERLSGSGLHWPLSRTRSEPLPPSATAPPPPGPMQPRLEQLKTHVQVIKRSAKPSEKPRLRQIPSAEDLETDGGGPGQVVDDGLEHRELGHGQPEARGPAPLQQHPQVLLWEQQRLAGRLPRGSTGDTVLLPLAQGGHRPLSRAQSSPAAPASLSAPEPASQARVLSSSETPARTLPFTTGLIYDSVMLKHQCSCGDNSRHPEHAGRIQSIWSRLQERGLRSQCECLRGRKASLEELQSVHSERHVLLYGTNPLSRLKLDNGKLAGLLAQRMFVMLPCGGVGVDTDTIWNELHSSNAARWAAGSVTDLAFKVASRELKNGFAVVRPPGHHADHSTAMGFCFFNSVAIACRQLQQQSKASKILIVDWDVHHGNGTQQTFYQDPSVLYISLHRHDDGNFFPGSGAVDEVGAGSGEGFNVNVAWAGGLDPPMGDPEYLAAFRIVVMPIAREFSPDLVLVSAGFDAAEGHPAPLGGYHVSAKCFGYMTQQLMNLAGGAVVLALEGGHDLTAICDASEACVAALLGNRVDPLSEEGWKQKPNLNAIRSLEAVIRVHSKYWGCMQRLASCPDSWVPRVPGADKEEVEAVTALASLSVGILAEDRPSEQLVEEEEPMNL

Histone deacetylase 11 = target: T2, Histone deacetylase 11 (Homo sapiens, UniProt Q96DB2)
T2 sequence (Q96DB2 whole entry): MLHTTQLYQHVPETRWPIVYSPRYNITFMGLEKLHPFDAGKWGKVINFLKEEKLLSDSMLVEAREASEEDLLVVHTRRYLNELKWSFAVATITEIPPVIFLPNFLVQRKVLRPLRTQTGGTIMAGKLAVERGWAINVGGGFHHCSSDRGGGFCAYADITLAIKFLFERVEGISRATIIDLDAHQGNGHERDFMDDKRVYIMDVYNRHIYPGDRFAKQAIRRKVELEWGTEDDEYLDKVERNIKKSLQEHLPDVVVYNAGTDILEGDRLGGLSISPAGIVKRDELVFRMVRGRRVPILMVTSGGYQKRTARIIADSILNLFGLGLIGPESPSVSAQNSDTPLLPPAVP

in vivo [1] = conditions: mouse, iv, 2 mg/kg
in vivo [2] = conditions: mouse, iv, 2 mg/kg; remark: listed apart in the source
in vivo [3] = conditions: mouse, iv, 2 mg/kg; remark: listed apart in the source
in vivo [4] = conditions: mouse, po, 10 mg/kg
in vivo [5] = conditions: mouse, po, 10 mg/kg; remark: listed apart in the source
in vivo [6] = conditions: mouse, po, 10 mg/kg; remark: listed apart in the source
in vivo [7] = conditions: rat, iv, 0.5 mg/kg
in vivo [8] = conditions: rat, iv, 0.5 mg/kg; remark: listed apart in the source
in vivo [9] = conditions: rat, iv, 0.5 mg/kg; remark: listed apart in the source
in vivo [10] = conditions: rat, po, 5 mg/kg
in vivo [11] = conditions: rat, po, 5 mg/kg; remark: listed apart in the source
in vivo [12] = conditions: rat, po, 5 mg/kg; remark: listed apart in the source
in vivo [13] = conditions: dog, iv, 1 mg/kg
in vivo [14] = conditions: dog, iv, 1 mg/kg; remark: listed apart in the source
in vivo [15] = conditions: dog, iv, 1 mg/kg; remark: listed apart in the source
in vivo [16] = conditions: dog, po, 2 mg/kg
in vivo [17] = conditions: dog, po, 2 mg/kg; remark: listed apart in the source
in vivo [18] = conditions: dog, po, 2 mg/kg; remark: listed apart in the source
in vitro [19] = conditions: mouse, plasma
in vitro [20] = conditions: rat, plasma
in vitro [21] = conditions: dog, plasma
in vitro [22] = conditions: human, plasma

CN1CC(C(=O)N[C@@H](CCCCCC(=O)c2ccon2)c2ncc(-c3ccccc3F)[nH]2)C1
IC50 (Histone deacetylase 4): > 50 µM
IC50 (Histone deacetylase 5): > 50 µM
IC50 (Histone deacetylase 7): > 50 µM
IC50 (Histone deacetylase 11): > 50 µM
clearance (in vivo [1]): 54 mL/min/kg
Vd (in vivo [2]): 3.9 L/kg
half-life (in vivo [3]): 5.2 h
Cmax (in vivo [4]): 480 nM
Tmax (in vivo [5]): 0.25 h
bioavailability (in vivo [6]): 18%
clearance (in vivo [7]): 156 mL/min/kg
Vd (in vivo [8]): 37 L/kg
half-life (in vivo [9]): 5.5 h
Cmax (in vivo [10]): 50 nM
Tmax (in vivo [11]): 0.38 h
bioavailability (in vivo [12]): 16%
clearance (in vivo [13]): 61 mL/min/kg
Vd (in vivo [14]): 1.5 L/kg
half-life (in vivo [15]): 2.3 h
Cmax (in vivo [16]): 71 nM
Tmax (in vivo [17]): 0.75 h
bioavailability (in vivo [18]): 7.2%
fraction unbound (in vitro [19]): 0.038
fraction unbound (in vitro [20]): 0.114
fraction unbound (in vitro [21]): 0.088
fraction unbound (in vitro [22]): 0.085
